Consider one sequence from publication PMC9962212.

For at least one entry, the source does not settle the construct or the ends of the probe. Negatives hold for the conditions tested.

The test system of this data set is FlhD + FlhC. The data set can be described thus: EMSA. To be noted: up to 100 nM FlhDC, 0.1 pmol probe, EMSA: 37 °C, 30 min in gel shift buffer (composition not given), FlhDC 0/10/30/100 nM, recombinant protein, label: none (GelRed stain), probe letters rebuilt from the primers and the genome. (In EMSA bound probe runs differently from free probe, usually more slowly.)

“CGTTTGCGCAACGCTCGCGAATTTTTCTCTTTCAATGGTGATCACAATTTTGACTGTGGTTACCGTGGGCAAAATACAGAAATTACATTGATGATTGTGGATAACTCTGTGCGTAAAAAGGTATAAAGCGGGCTTTTGCTGGGGAATGCAGCAGTCAGTCATTTTTCTGCAATTTTTCTATTGCGGCCTGCGGAGAACTCCCTATAATGCGCCTCCATCGACACGGCGGATGTGAATCACTTCACACAAACAGCCGGTTCGGTTGAAGAGAAAAATCCTGAAATTCAGGGTTGACTCTGAAAGAGGAAAGCGTAATATACGCCACCTCGCGACAGTGCGCTAAAGCGCGTCGCAACTGCTCTTTAACAATTTATCAGACAATCTGTGTGGGCACTCGAAG (double strand) [purH/rrsE probe]”: the binding result is recorded as “no binding”.
